According to patent US20180369373A1 (INNATE PHARMA, published 2018):
No constants are given. Whether binding was seen depends on the method and setting. Some results given as binding are weak or reduced against the parent protein; the word gives no strength.

The chains behind the UniProt entries cited, without tags or fusion partners. Where a name states a change or a piece, a line headed by the entry shows the natural chain unless it says otherwise.
UniProt O76036: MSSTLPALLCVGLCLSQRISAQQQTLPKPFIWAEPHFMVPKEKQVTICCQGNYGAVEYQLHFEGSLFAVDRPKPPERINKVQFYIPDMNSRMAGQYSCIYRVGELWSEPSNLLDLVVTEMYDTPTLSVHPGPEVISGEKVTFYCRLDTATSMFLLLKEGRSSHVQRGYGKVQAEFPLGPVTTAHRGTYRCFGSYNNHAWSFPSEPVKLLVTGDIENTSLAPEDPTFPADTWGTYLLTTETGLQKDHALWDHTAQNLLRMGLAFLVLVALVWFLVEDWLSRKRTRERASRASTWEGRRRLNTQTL

Target: Human NKp46-His recombinant protein (human) (UniProt O76036)
Assay: western blot, reducing SDS-PAGE, 100, 50 and 10 ng of protein loaded

binding: binds
B1: 8E5B antibody (antibody, mouse IgG1, V domains shown)
VH: EIQLQQSGAELVKPGASVKLSCTASGFNIKDTYFHWVKQRPEQGLEWIGRIDPANGNTKYDPKFHDKATIIADISSNTAYLQFSSLTSEDTAVYYCAANRYGYWGQGTTLTVSS
VL: DIVMTQAAPSIPVTPGESVSISCRSSKSLLYINGNTHLFWFLQRPGQSPQLLIYRMSNLASGVPDRFSGSGSGTAFTLRISRVEAEDVGVYYCMQHLEYPFTFGSGTKLEIK
notes: Mouse monoclonal antibody; also called 8E5-B clone; monoclonal antibody 8E5B
